For at least one compound, name, drawing or mass did not settle the structure.
Test system: Chick limb bud cells
Assay: Limb bud cell high density culture, cartilage matrix by Alcian blue
Format: cell-based
Settings: RA 1 μM or AGN194310 100 nM for 6 days
Experimental: The limb bud cells were inoculated at a high density and treated with retinoids. Cartilage matrix accumulation was visualized by Alcian blue staining. […] Similar testing was described in Hoffman et al., J. Cell. Biol. 174:101-113, 2006. Chick limb bud cells were isolated from […], seeded at the density of 4×10^5 cells in 10 μL and maintained in 1% FBS containing high glucose DMEM for 3 days. Cultures then were treated with 0.1% EtOH (vehicle), retinoic acid (RA) 1 μM or AGN194310 100 nM for 6 days, fixed, and stained with Alcian Blue, pH 1.0.

## CC1=C(/C=C/C(C)=C/C=C/C(C)=C/C(=O)O)C(C)(C)CCC1 [RA, retinoic acid]
  cartilage matrix production / cartilage forming region (Alcian blue): restricts the cartilage forming region

From patent publication US11833256B2, “Selective RARγ ligand-loaded nanoparticles for manipulation of targeted bone growth” (University Of Maryland, Baltimore, priority 2017, dated 2023)
